This note sets out measurements from article PMC12570964 (Nature Microbiology, 2025).

In assay [1] the target is T1, mouse IFIT3 (M. musculus Ifit3, co-expressed with Ifit2 in E. coli) (M. musculus) (UniProt Q64345).
T1 sequence: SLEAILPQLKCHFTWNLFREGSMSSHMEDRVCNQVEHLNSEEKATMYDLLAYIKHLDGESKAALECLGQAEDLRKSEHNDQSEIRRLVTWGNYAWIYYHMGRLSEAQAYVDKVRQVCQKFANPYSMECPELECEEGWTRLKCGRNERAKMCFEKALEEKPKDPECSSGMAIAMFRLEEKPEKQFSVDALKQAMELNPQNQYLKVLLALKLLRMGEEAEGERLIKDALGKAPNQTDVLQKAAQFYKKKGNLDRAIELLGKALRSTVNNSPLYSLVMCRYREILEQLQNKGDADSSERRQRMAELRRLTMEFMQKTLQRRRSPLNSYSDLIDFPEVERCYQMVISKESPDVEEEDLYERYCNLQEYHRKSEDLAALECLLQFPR
Briefly: cryo-EM structure; both purified.

In assay [2] the target is T2, HA-tagged mouse IFIT3 (mouse) (UniProt Q64345).
T2 sequence: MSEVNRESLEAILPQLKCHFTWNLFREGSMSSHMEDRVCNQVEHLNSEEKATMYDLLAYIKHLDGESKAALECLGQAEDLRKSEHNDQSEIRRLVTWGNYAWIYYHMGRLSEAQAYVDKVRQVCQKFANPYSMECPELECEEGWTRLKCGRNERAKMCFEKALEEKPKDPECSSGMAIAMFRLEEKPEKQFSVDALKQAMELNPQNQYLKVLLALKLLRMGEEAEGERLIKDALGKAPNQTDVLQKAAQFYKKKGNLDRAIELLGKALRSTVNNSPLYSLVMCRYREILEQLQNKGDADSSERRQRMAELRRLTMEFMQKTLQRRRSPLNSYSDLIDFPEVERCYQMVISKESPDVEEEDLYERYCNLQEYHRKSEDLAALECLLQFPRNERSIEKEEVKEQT
Briefly: co-IP.

These are yes or no findings as the source states them, for the method shown. For some of these results: Binding seen in cells or lysates may run through a third protein. Some binding calls cover weakened binding; strength is not graded here. For some of these results: Tags and fused reporters may be left off the sequences shown.

B1: mouse IFIT2 (M. musculus Ifit2, co-expressed with Ifit3 in E. coli) (natural protein, UniProt Q64112 1-472, looked up)
chain: MSTTSKESLVCNLRQLKCHFTWNLIAEDESLDEFEDRVFNKDEFQNSEFKATMCNILAYVKHCRGLNEAALQCLGEAEGFIQQQHPDQVEIRSLVTWGNYAWVYYHMGQFSKAQAYLDKVKQVCKKFSSPYRIENPALDCEEGWARLKCTKNQNERVKVCFQKALEKDPKNPEFTSGWAIAFYRLDDWPARNYCIDSLEQAIQLSPDNTYVKVLLALKLDAVHVHKNQAMALVEEALKKDPSAIDTLLRAARFYCKVYDTDRAIQLLRKALEKLPNNAYVHYYMGCCYRSKVHHMLNRREMVFSGDRKKLEELIQLAVNHLRKAEEIKEMLEYSCSFLADLYIIAKKYDEADYYFQKELSKDLPPGPKQLLHLRYGNFQFFQMKRQDKAIYHYMEGVKIKKKTIPQKKMREKLQRIALRRLHEDESDSEALHILAFLQENGGGQQADKDSERGVDSANQVPSASLDEDGAEY
notes: also called interferon-induced protein with tetratricopeptide repeats 2; source: E. coli Rosetta pLysS, co-expressed with Ifit3, purified (nickel column, TEV cleavage, Superdex 200 size exclusion)
Regarding B1, the binding result in assay [1] is “binds”.

B2: 3×FLAG-tagged mouse IFIT2 (protein, UniProt Q64112 1-472)
chain: B1 chain
For B2, the binding entry in assay [2] was “binds”.

B3: endogenous human IFIT1 (protein, UniProt P09914 1-478)
chain: MSTNGDDHQVKDSLEQLRCHFTWELSIDDDEMPDLENRVLDQIEFLDTKYSVGIHNLLAYVKHLKGQNEEALKSLKEAENLMQEEHDNQANVRSLVTWGNFAWMYYHMGRLAEAQTYLDKVENICKKLSNPFRYRMECPEIDCEEGWALLKCGGKNYERAKACFEKVLEVDPENPESSAGYAISAYRLDGFKLATKNHKPFSLLPLRQAVRLNPDNGYIKVLLALKLQDEGQEAEGEKYIEEALANMSSQTYVFRYAAKFYRRKGSVDKALELLKKALQETPTSVLLHHQIGLCYKAQMIQIKEATKGQPRGQNREKLDKMIRSAIFHFESAVEKKPTFEVAHLDLARMYIEAGNHRKAEENFQKLLCMKPVVEETMQDIHFHYGRFQEFQKKSDVNAIIHYLKAIKIEQASLTRDKSINSLKKLVLRKLRRKALDLESLSLLGFVYKLEGNMNEALEYYERALRLAADFENSVRQGP
For the molecule B3, in assay [2], the binding entry is “no binding”.

B4: overexpressed human IFIT1 (protein, UniProt P09914 1-478)
chain: B3 chain
Turning to B4, the binding entry in assay [2] is “no binding”.
